The target of the experiment is Cyclic adenosine monophosphate (cAMP) response element-binding protein (CREB), endogenous (human (endogenous in Bel-7402 and SMMC-7721)) (UniProt P16220). As to the kind of experiment: affinity purification with mass spectrometry; proteins immunoprecipitated by anti-CREB antibodies from Bel-7402 cells, ESI-Q-TOF-MS, three independent times.

Sequences of proteins named here, by UniProt entry; tags and fusion partners are left off.
UniProt Q12905: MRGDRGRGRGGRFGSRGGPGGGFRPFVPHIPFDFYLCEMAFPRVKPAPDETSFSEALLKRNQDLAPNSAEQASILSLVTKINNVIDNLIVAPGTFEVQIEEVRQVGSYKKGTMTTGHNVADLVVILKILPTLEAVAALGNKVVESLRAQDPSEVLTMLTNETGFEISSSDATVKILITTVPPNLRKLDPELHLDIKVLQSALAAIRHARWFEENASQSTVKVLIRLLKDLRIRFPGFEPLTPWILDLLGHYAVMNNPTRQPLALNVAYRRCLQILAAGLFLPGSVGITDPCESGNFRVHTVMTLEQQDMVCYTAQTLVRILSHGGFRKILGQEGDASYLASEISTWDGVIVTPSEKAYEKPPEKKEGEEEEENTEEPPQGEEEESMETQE

These are yes or no findings as the source states them, for the method shown. In cells and extracts the contact can be indirect. Here binding means that the protein was enriched with, or labelled near, the bait; the list need not be complete.

Turning to “Interleukin enhancer binding factor 2 (ILF2), endogenous (from UniProt Q12905 1-390)”, the binding entry is given as “binds”.
